Results taken from paper PMC4669652.
These are yes or no findings as the source states them, for the method shown. Binding seen in cells or lysates may run through a third protein. Some binding calls cover weakened binding; strength is not graded here. For some of these results: Sequences can lack the tags named with a protein. Each block holds one binder with its values, some of them ahead of it.

Key:
[1] = molecular target: T1, GST-SREBP-2 (amino acids 1-480) (UniProt Q12772); test: pull-down; partially purified GST-fusion proteins incubated with the reciprocal protein synthesized by TNT; bound protein detected by immunoblot; only the target purified
T1 sequence: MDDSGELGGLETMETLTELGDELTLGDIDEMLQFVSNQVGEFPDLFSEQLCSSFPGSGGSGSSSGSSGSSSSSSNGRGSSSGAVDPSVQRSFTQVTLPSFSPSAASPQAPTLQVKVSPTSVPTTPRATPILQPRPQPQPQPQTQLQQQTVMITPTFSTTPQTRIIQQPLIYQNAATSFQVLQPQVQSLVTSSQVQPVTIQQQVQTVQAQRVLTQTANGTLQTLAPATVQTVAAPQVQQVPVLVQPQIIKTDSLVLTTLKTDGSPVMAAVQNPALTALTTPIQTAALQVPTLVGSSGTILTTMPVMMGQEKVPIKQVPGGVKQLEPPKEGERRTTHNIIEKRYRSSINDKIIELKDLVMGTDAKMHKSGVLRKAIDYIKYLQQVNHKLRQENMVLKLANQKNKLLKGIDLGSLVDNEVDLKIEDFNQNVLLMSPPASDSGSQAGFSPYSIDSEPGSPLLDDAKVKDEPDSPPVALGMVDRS

[2] = molecular target: T2, GST-SREBP-2 central domain fragment (amino acids 51-330) (UniProt Q12772); test: as above
T2 sequence: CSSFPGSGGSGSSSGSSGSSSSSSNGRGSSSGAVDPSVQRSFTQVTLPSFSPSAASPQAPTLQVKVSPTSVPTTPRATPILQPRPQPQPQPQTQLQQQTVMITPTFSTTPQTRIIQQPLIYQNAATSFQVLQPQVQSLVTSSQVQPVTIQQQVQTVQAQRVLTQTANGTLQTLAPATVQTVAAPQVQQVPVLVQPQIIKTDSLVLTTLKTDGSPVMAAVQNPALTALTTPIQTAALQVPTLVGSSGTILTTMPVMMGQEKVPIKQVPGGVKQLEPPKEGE

[3] = molecular target: T3, SHP, endogenous in mouse liver (mouse (endogenous in mouse liver)) (UniProt Q62227); test: co-IP; endogenous proteins in liver nuclear extracts of mice fasted 12 h and then fed or fasted for 6 h; extracts in 50 mM Tris-HCl pH 8.0, 150 mM NaCl, 2 mM EDTA, 0.5 % NP40, 10 % glycerol
T3 sequence: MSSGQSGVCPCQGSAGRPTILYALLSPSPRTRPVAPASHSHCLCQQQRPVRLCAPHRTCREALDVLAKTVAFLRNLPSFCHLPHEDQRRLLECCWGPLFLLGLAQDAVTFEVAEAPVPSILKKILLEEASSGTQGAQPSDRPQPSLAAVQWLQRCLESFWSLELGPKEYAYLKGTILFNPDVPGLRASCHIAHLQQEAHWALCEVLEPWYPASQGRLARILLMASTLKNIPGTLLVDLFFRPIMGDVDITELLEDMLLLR

[4] = molecular target: T4, flag-SHP (small heterodimer partner, NR0B2), adenovirally expressed (UniProt Q15466); test: co-IP; liver (nuclear) extracts of mice injected with adenovirus for SHP WT or T55A, 1 week later treated with vehicle or FGF19 for 2 h; extracts in 50 mM Tris-HCl pH 8.0, 150 mM NaCl, 2 mM EDTA, 0.5 % NP40, 10 % glycerol
T4 sequence: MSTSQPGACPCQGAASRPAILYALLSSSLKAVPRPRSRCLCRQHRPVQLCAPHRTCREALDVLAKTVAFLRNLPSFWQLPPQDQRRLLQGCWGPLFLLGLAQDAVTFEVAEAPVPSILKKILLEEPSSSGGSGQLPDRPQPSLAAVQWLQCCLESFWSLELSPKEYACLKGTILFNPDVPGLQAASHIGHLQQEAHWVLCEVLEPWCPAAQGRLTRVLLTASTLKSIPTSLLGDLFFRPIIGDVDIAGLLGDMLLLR

binding [1]: binds | binding [2]: binds
B1: SHP synthesized by TNT (protein, UniProt Q15466 1-257)
chain: T4 sequence

binding [3]: binds | binding [4]: binds
B2: SREBP-2, endogenous in mouse liver (protein, UniProt Q3U1N2 1-1130)
chain: MDESSELGVLETMETLTELGDELTLGDIDEMLQFVSNQVGEFPDLFSEQLCSSFPGGGSNGGSGNNSSGRGNNGGATDPAVQRSFSQVPLSTFSPSAASPQAPALQVKVSPTPPRATPVLQPRPQPQPQPPAQLQQQTVMITPTFSTAPQTRIIQQPLIYQNAATSFQVLQPQVQSLVTSPQVQPVTIQQQVQTVQAQRVLTQTANGTLQTLAPATVQTVAAPQVQQVPVLVQPQIIKTDSLVLTTLKTDGSPVMAAVQNPALTALTAPIQTAALQVPTLVGSNGTILTTMPVMMGQEKVPIKQVPGGVKQLDPPKEGERRTTHNIIEKRYRSSINDKIIELKDLVMGTDAKMHKSGVLRKAIDYIKYLQQVNHKLRQENMVLKLANQKNKLLKGIDLGSLVDSDVDLKIDDFNQNVLLMSPPASDSGSQAGFSPYSIDSEPGSPLLDDAKVKDEPDSPPVALGMVDRSRILLCVLTFLGLSFNPLTSLLQWGGAHNTDQHPYSGSGRSVLSLESGAGGWFDWMVPTLLLWLVNGVIVLSVFVKLLVHGEPVIRPHSRPSVTFWRHRKQADLDLAKGDFAAAAANLQTCLSVLGRALPTSRLDLACSLSWNVIRYSLQKLRLVRWLLKKVFQRWRATPATAAGFEDEAKSSARDAALAYHRLHQLHITGKLPAGSACSDVHMALCAVNLAECAEEKILPSTLIEIHLTAAMGLKTRCGGKLGFLASYFLNRAQSLCGPEHSTVPDSLRWLCHPLGQKFFMERSWSIKSAAKESLYCAQRSPADPIAQVHQAFCKNLLERAVESLVKPQAKKKAGDQEEESCEFSSALEYLKLLHSFVDSVGFVTSPFSSSSVLRSALGPDVICRWWTSAVTMAISWLQGDDAAVRSRFTEVERVPKALEVTESPLVKAVFYTCRAMHASLSGKADGQQNSFCHCERASGHLWSSLNVSGTTSDPSLNHVIQLFTCDLLLSLRTALWQKQASASQLLGETYHASGTELAGFQRDLGSLRRLAHSFRPAYRKVFLHEATVRLMAGASPTRTHQLLEHSLRRRPTQNTKHGEVDTWPGQRERATAILLACRHLPLSFLSSPGQRAVLLAEAARTLEKVGDRRSCSDCQQMIVKLGGGTAIAAS
